{"sequences": {"note": "By UniProt entry, the sequences of proteins in these tests, tags left out.", "UniProt Q8K3C0": "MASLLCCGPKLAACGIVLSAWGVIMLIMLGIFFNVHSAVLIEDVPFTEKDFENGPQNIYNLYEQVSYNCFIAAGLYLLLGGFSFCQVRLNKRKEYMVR"}, "source": "paper PMC11374810", "molecules": {"B1": {"name": "mCherry-VPS4a (protein, UniProt Q9UN37 1-437)", "chain": "MTTSTLQKAIDLVTKATEEDKAKNYEEALRLYQHAVEYFLHAIKYEAHSDKAKESIRAKCVQYLDRAEKLKDYLRSKEKHGKKPVKENQSEGKGSDSDSEGDNPEKKKLQEQLMGAVVMEKPNIRWNDVAGLEGAKEALKEAVILPIKFPHLFTGKRTPWRGILLFGPPGTGKSYLAKAVATEANNSTFFSVSSSDLMSKWLGESEKLVKNLFELARQHKPSIIFIDEVDSLCGSRNENESEAARRIKTEFLVQMQGVGNNNDGTLVLGATNIPWVLDSAIRRRFEKRIYIPLPEEAARAQMFRLHLGSTPHNLTDANIHELARKTEGYSGADISIIVRDSLMQPVRKVQSATHFKKVCGPSRTNPSMMIDDLLTPCSPGDPGAMEMTWMDVPGDKLLEPVVCMSDMLRSLATTRPTVNADDLLKVKKFSEDFGQES"}}, "key": {"[1]": {"biological_target": "T1, GFP-VPS4a (UniProt Q9UN37)", "T1 sequence": "B1 chain", "assay": "pull-down; cleared HEK293T lysates expressing individual transgenes mixed, incubated with GFP-Trap agarose beads overnight at 4 °C in PD buffer (150 mM NaCl, 20 mM Tris-HCl pH 7.5, 5 mM EDTA, 1% Triton-X); three washes; western blot; GFP alone as control"}, "[2]": {"biological_target": "GFP-RNAseK (mouse) (UniProt Q8K3C0)", "assay": "pull-down; cleared HEK293T lysates expressing individual transgenes mixed, incubated with GFP-Trap agarose beads overnight at 4 °C in PD buffer (150 mM NaCl, 20 mM Tris-HCl pH 7.5, 5 mM EDTA, 1% Triton-X); three washes; western blot; GFP alone as control"}}, "note": "Results are given in words; binding and its absence hold for the method and conditions named. Binding seen in cells or lysates may run through a third protein. Some results given as binding are weak or reduced against the parent protein; the word gives no strength. For some assays here: Where a sequence is shown, tags or fusion partners need not be part of it."}
{"molecule": "RNAseK-MYC-TurboID (from UniProt Q8K3C0 1-98)", "values": [{"measurement": "binding", "setting": "[1]", "result": "binds"}]}
{"molecule": "B1", "values": [{"measurement": "binding", "setting": "[2]", "result": "binds"}]}
